# Values from PubChem BioAssay AID1259254 (NCATS, 2017).
# Aim: 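Finding genes that stop cells copying their DNA twice in one cycle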 (primary screen)
# System: human HCT116 colorectal cancer cells
# Reagent: single siRNA against human genes
# Timing: 3 days
# Measurement: 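Nuclei stained with Hoechst and imaged; cell-cycle phase assigned by DNA content; G2 share scaled per plate, non-targeting siRNA 0%, GMNN siRNA 100%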
# Scale: G2 robust z-score and G2 cells, % of GMNN control: higher = more G2 cells, more excess DNA replication; raw share of cells in G2: higher = larger share of cells with G2 DNA content
# Call rule: 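Active siRNAs have a G2 robust z of 5 or more median absolute deviations over the median, which in these data means about 38% or higher of GMNN control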
# This is one part, drawn at random, of about 59,000 reagents tested. Of all reagents, about 1,550 (2.6%) were called active. 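G2 share is only a proxy for re-replication; each gene was hit by three separate siRNAs, and active genes were retested.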 Raw values vary from plate to plate and are shown uncorrected. Reagents against one gene are numbered here. Reagent sequences are not shown. Not stated in the record: the amount of reagent.
Target gene,reagent no.,G2 robust z-score,"G2 cells, % of GMNN control",raw share of cells in G2 (%),activity call
EDDM3A (epididymal protein 3A),1,0.000969,2.97,6.99,inactive
EDDM3A (epididymal protein 3A),2,0.24,4.66,5.35,inactive
EDDM3A (epididymal protein 3A),3,-0.891,-3.3,5.18,inactive
GOLM2 (golgi membrane protein 2),1,-0.209,1.5,2.26,inactive
GOLM2 (golgi membrane protein 2),2,-0.351,0.5,4.29,inactive
GOLM2 (golgi membrane protein 2),3,-0.306,0.813,3.57,inactive
SP7 (Sp7 transcription factor),1,0.308,5.13,4.86,inactive
SP7 (Sp7 transcription factor),2,3.85,30.1,13.6,inactive
SP7 (Sp7 transcription factor),3,-0.566,-1.02,3.17,inactive
DENND1A (DENN domain containing 1A),1,-0.506,-0.589,4.11,inactive
DENND1A (DENN domain containing 1A),2,3.43,27.1,17.4,inactive
DENND1A (DENN domain containing 1A),3,-0.765,-2.41,2.26,inactive
MCU (mitochondrial calcium uniporter),1,-0.0345,2.72,5.24,inactive
MCU (mitochondrial calcium uniporter),2,0.201,4.38,4.37,inactive
MCU (mitochondrial calcium uniporter),3,-0.185,1.66,3.45,inactive
KRTAP9-9 (keratin associated protein 9-9),1,-0.055,2.58,3.74,inactive
KRTAP9-9 (keratin associated protein 9-9),2,5.16,39.3,20.8,active
KRTAP9-9 (keratin associated protein 9-9),3,0.838,8.86,5.78,inactive
IDH2 (isocitrate dehydrogenase (NADP(+)) 2),1,-0.588,-1.17,5.24,inactive
IDH2 (isocitrate dehydrogenase (NADP(+)) 2),2,-0.327,0.664,4.44,inactive
IDH2 (isocitrate dehydrogenase (NADP(+)) 2),3,0.449,6.13,7.27,inactive
CSMD3 (CUB and Sushi multiple domains 3),1,0.162,4.11,5.74,inactive
CSMD3 (CUB and Sushi multiple domains 3),2,1.87,16.1,8.14,inactive
CSMD3 (CUB and Sushi multiple domains 3),3,0.207,4.43,3.11,inactive
AATF (apoptosis antagonizing transcription factor),1,1.13,10.9,6.65,inactive
AATF (apoptosis antagonizing transcription factor),2,1.75,15.3,12.8,inactive
AATF (apoptosis antagonizing transcription factor),3,0.318,5.2,5.27,inactive
NPY2R (neuropeptide Y receptor Y2),1,0.55,6.83,8.29,inactive
NPY2R (neuropeptide Y receptor Y2),2,-0.261,1.13,4.91,inactive
NPY2R (neuropeptide Y receptor Y2),3,0.666,7.65,5.62,inactive
AGGF1 (angiogenic factor with G-patch and FHA domains 1),1,2.38,19.7,12.1,inactive
AGGF1 (angiogenic factor with G-patch and FHA domains 1),2,-0.725,-2.13,3.25,inactive
AGGF1 (angiogenic factor with G-patch and FHA domains 1),3,0.513,6.58,5.24,inactive
ZNF551 (zinc finger protein 551),1,0.434,6.02,5.16,inactive
ZNF551 (zinc finger protein 551),2,-0.0453,2.65,4.09,inactive
ZNF551 (zinc finger protein 551),3,3.63,28.5,13.5,inactive
OR52N2 (olfactory receptor family 52 subfamily N member 2),1,0.303,5.1,5.52,inactive
OR52N2 (olfactory receptor family 52 subfamily N member 2),2,0.601,7.2,6.54,inactive
OR52N2 (olfactory receptor family 52 subfamily N member 2),3,1,10,8.94,inactive
EEF1A1P48,1,-1.09,-4.71,1.72,inactive
EEF1A1P48,2,-0.272,1.05,3.42,inactive
EEF1A1P48,3,-0.684,-1.84,3.57,inactive
MRGPRX3 (MAS related GPR family member X3),1,0.502,6.5,8.17,inactive
MRGPRX3 (MAS related GPR family member X3),2,3.24,25.8,13.5,inactive
MRGPRX3 (MAS related GPR family member X3),3,-0.504,-0.581,3.09,inactive
ABHD18 (abhydrolase domain containing 18),1,-0.568,-1.03,4.02,inactive
ABHD18 (abhydrolase domain containing 18),2,-0.16,1.84,5.11,inactive
ABHD18 (abhydrolase domain containing 18),3,0.837,8.85,4.8,inactive
DNPEP (aspartyl aminopeptidase),1,0.494,6.44,6.07,inactive
DNPEP (aspartyl aminopeptidase),2,0.855,8.98,9.97,inactive
DNPEP (aspartyl aminopeptidase),3,5.32,40.4,17.7,active
MC3R (melanocortin 3 receptor),1,4.74,36.4,18.8,inactive
MC3R (melanocortin 3 receptor),2,-0.684,-1.85,3.87,inactive
MC3R (melanocortin 3 receptor),3,1.41,12.9,7.23,inactive
TMEM186 (transmembrane protein 186),1,3.23,25.7,14.1,inactive
TMEM186 (transmembrane protein 186),2,-1.15,-5.09,1.73,inactive
TMEM186 (transmembrane protein 186),3,2.03,17.2,9.32,inactive
TCTN3 (tectonic family member 3),1,-1.03,-4.29,2.8,inactive
TCTN3 (tectonic family member 3),2,-0.00492,2.93,5.21,inactive
TCTN3 (tectonic family member 3),3,-0.776,-2.49,2.43,inactive
SERPINE1 (serpin family E member 1),1,-0.55,-0.903,2.89,inactive
SERPINE1 (serpin family E member 1),2,7.37,54.8,25.9,active
SERPINE1 (serpin family E member 1),3,-0.14,1.98,5.56,inactive
UBE2QL1 (ubiquitin conjugating enzyme E2 QL1),1,0.605,7.22,6.9,inactive
UBE2QL1 (ubiquitin conjugating enzyme E2 QL1),2,-0.687,-1.86,2.51,inactive
UBE2QL1 (ubiquitin conjugating enzyme E2 QL1),3,-0.603,-1.27,2.12,inactive
DLG1 (discs large MAGUK scaffold protein 1),1,-0.563,-0.991,4.61,inactive
DLG1 (discs large MAGUK scaffold protein 1),2,-0.112,2.18,5.79,inactive
DLG1 (discs large MAGUK scaffold protein 1),3,0.26,4.8,5.75,inactive
TAF10 (TATA-box binding protein associated factor 10),1,1.14,11,7.82,inactive
TAF10 (TATA-box binding protein associated factor 10),2,-0.575,-1.08,4.34,inactive
TAF10 (TATA-box binding protein associated factor 10),3,0.206,4.42,4.71,inactive
PNMA8A (PNMA family member 8A),1,0.487,6.4,6.98,inactive
PNMA8A (PNMA family member 8A),2,-0.609,-1.32,3.59,inactive
PNMA8A (PNMA family member 8A),3,-0.0674,2.49,3.93,inactive
MAP4K2 (mitogen-activated protein kinase kinase kinase kinase 2),1,-1.36,-6.57,3.44,inactive
MAP4K2 (mitogen-activated protein kinase kinase kinase kinase 2),2,-0.503,-0.569,5.22,inactive
MAP4K2 (mitogen-activated protein kinase kinase kinase kinase 2),3,-0.549,-0.893,3.71,inactive
GALR2 (galanin receptor 2),1,-0.178,1.71,5.57,inactive
GALR2 (galanin receptor 2),2,2.05,17.4,11.3,inactive
GALR2 (galanin receptor 2),3,6.31,47.3,19.9,active
H2AZ2 (H2A.Z variant histone 2),1,-0.0532,2.59,5.13,inactive
H2AZ2 (H2A.Z variant histone 2),2,-0.578,-1.1,3,inactive
H2AZ2 (H2A.Z variant histone 2),3,0.359,5.49,3.42,inactive
ZNF208 (zinc finger protein 208),1,1.05,10.4,6.98,inactive
ZNF208 (zinc finger protein 208),2,-0.211,1.48,6.65,inactive
ZNF208 (zinc finger protein 208),3,1.06,10.4,7.71,inactive

As entered above.
DLG1 (discs large MAGUK scaffold protein 1) #2, raw share of cells in G2 (%) → 5.79
For “G2 cells, % of GMNN control”, GALR2 (galanin receptor 2) #1 reads 1.71
For “G2 cells, % of GMNN control”, SERPINE1 (serpin family E member 1) #3 is entered as 1.98
Under “G2 robust z-score”, NPY2R (neuropeptide Y receptor Y2) #3 shows 0.666
Under “G2 robust z-score”, AGGF1 (angiogenic factor with G-patch and FHA domains 1) #2 shows -0.725
